Target: T1, HCV NS3/4A protease complex (BMS strain) (UniProt P27958, C1454S/C1711G, species not given)
T1 construct: for H77 and J4L6S; fused on or other part: Three-lysine solubilising tail at the C-terminus of NS4A
Experiment: Recombinant HCV NS3/4A protease complex FRET peptide assay
Format: biochemical, Hepatitis C virus (HCV), genotype 1a
Settings: NS3/4A BMS strain; activity range class
Text: Recombinant HCV NS3/4A Protease Complex FRET Peptide Assay
Serum from an HCV-infected patient was obtained from Dr. T. Wright, San Francisco Hospital. An engineered full-length cDNA (compliment deoxyribonucleic acid) template of the HCV genome (BMS strain) was constructed from DNA fragments obtained by reverse transcription-PCR (RT-PCR) of serum RNA (ribonucleic acid) and using primers selected on the basis of homology between other genotype 1a strains.
The H77 and J4L6S strains were used for production of recombinant NS3/4A protease complexes. […] Briefly, a three-lysine solubilizing tail was added at the 3′-end of the NS4A coding region. […] Briefly, the NS3/4A protease complex expression was induced with 0.5 millimolar (mM) Isopropyl β-D-1-thiogalactopyranoside (IPTG) for 22 hours (h) at 20° C. […] The cells were resuspended in lysis buffer (10 mL/g) consisting of 25 mM N-(2-Hydroxyethyl)piperazine-N′-(2-Ethane Sulfonic acid) (HEPES), pH 7.5, 20% glycerol, 500 mM Sodium Chloride (NaCl), 0.5% Triton X-100, 1 microgram/milliliter (“μg/mL”) lysozyme, 5 mM Magnesium Chloride (MgCl2), 1 μg/ml DnaseI, 5 mM β-Mercaptoethanol (βME), Protease inhibitor—Ethylenediamine Tetraacetic acid (EDTA) free (Roche), homogenized and incubated for 20 minutes (min) at 4° C. The homogenate was sonicated and clarified by ultra-centrifugation at 235000 g for 1 h at 4° C. […]

C=C[C@@H]1C[C@]1(NC(=O)[C@@H]1C[C@@H](Oc2cc(-c3ccccc3)nc3nc(C)ccc23)CN1C(=O)[C@@H](NC(=O)OC(C)(C)C)C(C)(C)C)C(=O)NS(=O)(=O)C1(Cc2ccccc2)CC1 [Cmpd 800]
IC50: < 100 nM

From patent publication US7135462B2, “Hepatitis C virus inhibitors” (priority 2003, dated 2006)
